Laboratory results as given in patent US20130252950A1, “TARGETING MTOR SUBSTRATES IN TREATING PROLIFERATIVE DISEASES” (President and Fellows of Harvard College, priority 2010, published 2013).
No constants are given. Whether binding was seen depends on the method and setting. In cells and extracts the contact can be indirect. Some binding calls cover weakened binding; strength is not graded here. Tags and fused reporters may be left off the sequences shown.

By UniProt entry, the sequences of proteins in these tests, tags left out.
UniProt Q8N122: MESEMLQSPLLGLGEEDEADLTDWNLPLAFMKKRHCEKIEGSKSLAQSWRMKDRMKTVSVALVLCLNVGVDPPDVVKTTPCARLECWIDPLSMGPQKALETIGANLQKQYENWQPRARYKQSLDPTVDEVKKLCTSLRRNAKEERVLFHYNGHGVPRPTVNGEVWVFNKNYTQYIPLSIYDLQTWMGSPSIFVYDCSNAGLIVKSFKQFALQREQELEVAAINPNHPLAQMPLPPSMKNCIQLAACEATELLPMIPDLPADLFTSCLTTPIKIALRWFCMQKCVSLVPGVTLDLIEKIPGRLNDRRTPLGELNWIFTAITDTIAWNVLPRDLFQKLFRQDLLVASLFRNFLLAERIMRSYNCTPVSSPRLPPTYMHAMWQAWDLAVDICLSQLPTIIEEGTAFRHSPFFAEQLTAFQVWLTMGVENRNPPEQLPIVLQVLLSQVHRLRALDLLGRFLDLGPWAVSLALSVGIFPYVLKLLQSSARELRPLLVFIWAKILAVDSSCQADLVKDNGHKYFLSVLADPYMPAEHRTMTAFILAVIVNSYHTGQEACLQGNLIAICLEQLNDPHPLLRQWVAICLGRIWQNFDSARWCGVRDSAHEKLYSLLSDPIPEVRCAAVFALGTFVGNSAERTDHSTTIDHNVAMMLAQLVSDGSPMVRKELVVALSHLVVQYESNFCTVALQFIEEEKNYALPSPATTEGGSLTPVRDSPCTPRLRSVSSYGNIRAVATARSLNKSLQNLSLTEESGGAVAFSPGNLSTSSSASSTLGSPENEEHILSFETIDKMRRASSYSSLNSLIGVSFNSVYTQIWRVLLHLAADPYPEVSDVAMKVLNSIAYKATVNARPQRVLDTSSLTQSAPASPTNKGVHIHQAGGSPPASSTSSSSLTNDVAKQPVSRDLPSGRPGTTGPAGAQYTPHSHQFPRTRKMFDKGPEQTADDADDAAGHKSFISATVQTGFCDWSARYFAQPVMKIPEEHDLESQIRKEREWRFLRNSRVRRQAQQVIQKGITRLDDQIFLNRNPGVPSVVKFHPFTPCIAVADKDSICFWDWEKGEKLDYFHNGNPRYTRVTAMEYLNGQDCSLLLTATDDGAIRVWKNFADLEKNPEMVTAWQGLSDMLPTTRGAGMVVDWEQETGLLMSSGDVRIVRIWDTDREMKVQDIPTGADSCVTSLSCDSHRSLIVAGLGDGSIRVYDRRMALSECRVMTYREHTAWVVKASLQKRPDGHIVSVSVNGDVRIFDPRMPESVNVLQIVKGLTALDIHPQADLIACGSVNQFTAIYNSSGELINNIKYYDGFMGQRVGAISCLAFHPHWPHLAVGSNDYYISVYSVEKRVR

Biological target: Myc-tagged raptor (pRK5-Myc-raptor) (UniProt Q8N122)
Experiment: co-immunoprecipitation with anti-HA beads from co-transfected HEK293T cells, anti-Myc blot

binding: binds
B1: HA-tagged Grb10 (human growth factor receptor-bound protein 10, wild type) (other, UniProt Q13322-3 1-536, looked up)
chain: MNASLESLYSACSMQSDTVPLLQNGQHARSQPRASGPPRSIQPQVSPRQRVQRSQPVHILAVRRLQEEDQQFRTSSLPAIPNPFPELCGPGSPPVLTPGSLPPSQAAAKQDVKVFSEDGTSKVVEILADMTARDLCQLLVYKSHCVDDNSWTLVEHHPHLGLERCLEDHELVVQVESTMASESKFLFRKNYAKYEFFKNPMNFFPEQMVTWCQQSNGSQTQLLQNFLNSSSCPEIQGFLHVKELGKKSWKKLYVCLRRSGLYCSTKGTSKEPRHLQLLADLEDSNIFSLIAGRKQYNAPTDHGLCIKPNKVRNETKELRLLCAEDEQTRTCWMTAFRLLKYGMLLYQNYRIPQQRKALLSPFSTPVRSVSENSLVAMDFSGQTGRVIENPAEAQSAALEEGHAWRKRSTRMNILGSQSPLHPSTLSTVIHRTQHWFHGRISREESHRIIKQQGLVDGLFLLRDSQSNPKAFVLTLCHHQKIKNFQILPCEDDGQTFFSLDDGNTKFSDLIQLVDFYQLNKGVLPCKLKHHCIRVAL
notes: Expressed by transfection in HEK293T cells; The phospho-specific antibody recognises it in the form phosphorylated at S501/S503 (mouse isoform 1 numbering) in cells; also called WT-Grb10; Grb10 WT; not shown: HA tag from vector pKH3
